No constants are given. Whether binding was seen depends on the method and setting. Some results given as binding are weak or reduced against the parent protein; the word gives no strength. Where a sequence is shown, tags or fusion partners need not be part of it.
B1: NKG2D-Fc fusion protein (Fc fusion, human, UniProt P26718 73-216, looked up)
chain: IWSAVFLNSLFNQEVQIPLTESYCGPCPKNWICYKNNCYQFFDESKNWYESQASCMSQNASLLKVYSKEDQDLLKLVKSYHWMGLVHIPTNGSWQWEDGSILSPNLLTIIEMQKGDCALYASSFKGYIENCSTPNTYICMQRTV
notes: Produced in 293T cells, purified on Protein A. 'The fusion was C-terminal to human IgG1 hinge-CH2-CH3 domains'; also called recombinant soluble Fc fusion protein of NKG2D; not shown: human IgG1 hinge-CH2-CH3 domains, N-terminal to NKG2D (in pcDNA3.0)

What was measured:
[1] = target: T1, full-length RAET1G, N-terminal Flag-tagged fusion protein, on transfected cells (human) (UniProt Q6H3X3); experiment: flow cytometry on transfected COS-7 cells, anti-human IgG FITC detection
T1 sequence (looked up): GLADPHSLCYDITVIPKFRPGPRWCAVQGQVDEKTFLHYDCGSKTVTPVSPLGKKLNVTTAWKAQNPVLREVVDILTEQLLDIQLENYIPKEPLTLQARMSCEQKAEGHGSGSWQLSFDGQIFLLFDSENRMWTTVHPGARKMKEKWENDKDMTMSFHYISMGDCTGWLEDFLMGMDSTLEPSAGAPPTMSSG

[2] = target: T1, full-length RAET1G, N-terminal Flag-tagged fusion protein, on transfected cells (human); experiment: flow cytometry on transfected COS-7 cells, NKG2D-Fc and anti human Fc-FITC (FIG. 11)
[3] = target: T2, UL16 Fc fusion (human cytomegalovirus; human) (UniProt P16757); experiment: SPR (BIACore 2000)
T2 sequence: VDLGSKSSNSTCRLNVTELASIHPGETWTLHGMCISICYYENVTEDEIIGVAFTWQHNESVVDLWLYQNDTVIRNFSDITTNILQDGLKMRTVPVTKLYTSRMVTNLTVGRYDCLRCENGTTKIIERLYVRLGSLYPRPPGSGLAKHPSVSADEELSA

NKG2D-Fc fusion protein = target: B1; experiment: SPR (BIACore) plots, FIG. 14
[4] = target: T2, UL16 Fc fusion (human cytomegalovirus; human); experiment: SPR (BIACore) plots, FIG. 14

B1 was tested, and the binding [1] was “binds” and the binding [2] was “binds”.

B2: soluble recombinant extracellular domain of RAET1G, 6-Histidine N-terminal fusion (ligand, human)
chain: HHHHHHGLADPHSLCYDITVIPKFRPGPRWCAVQGQVDEKTFLHYDCGSKTVTPVSPLGKKLNVTTAWKAQNPVLREVVDILTEQLLDIQLENYIPKEPLTLQARMSCEQKAEGHGSGSWQLSFDGQIFLLFDSENRMWTTVHPGARKMKEKWENDKDMTMSFHYISMGDCTGWLEDFLMGMDSTLEPSAGAPPTMSSGTAQPR
notes: extracellular domain; also called 6-His tagged recombinant RAET1G
For B2, the binding [3] was “binds”, the binding (NKG2D-Fc fusion protein) was “binds” and the binding [4] was “binds”.

B3: soluble recombinant extracellular domain of RAET1E, 6-Histidine N-terminal fusion (ligand, human)
chain: HHHHHHHSLCFNFTIKSLSRPGQPWCEAQVFLNKNLFLQYNSDNNMVKPLGLLGKKVYATSTWGELTQTLGEVGRDLRMLLCDIKPQIKTSDPSTLQVEMFCQREAERCTGASWQFATNGEKSLLFDAMNMTWTVINHEASKIKETWKKDRGLEKYFRKLSKGDCDHWLREFLGHWEAMPEPTVSPVNASDIHWSSSSLPD
With B3 the binding [3] was “binds” and the binding [4] was “binds”.

B4: soluble recombinant extracellular domain of ULBP1, 6-Histidine N-terminal fusion (ligand, human)
chain: HHHHHHGWVDTHCLCYDFIITPKSRPEPQWCEVQGLVDERPFLHYDCVNHKAKAFASLGKKVNVTKTWEEQTETLRDVVDFLKGQLLDIQVENLIPIEPLTLQARMSCEHEAHGHGRGSWQFLFNGQKFLLFDSNNRKWTALHPGAKKMTEKWEKNRDVTMFFQKISLGDCKMWLEEFLMYWEQMLDPTKPPSLAPG
For B4, the binding [3] was “binds”.

— patent publication US20080038248A1 (published 2008)
